Reference: PubChem BioAssay AID2685 (National Center for Advancing Translational Sciences (NCATS), 2010)
In all, about 320,000 compounds went through this assay and about 2,100 (0.66%) were called active. The inconclusive results got no clear call from the source; some entries with a clear call stand among them for comparison. Calls follow the shape of the dose curve; as a rule, active = well fitted inhibition curve with a large enough effect in the signal ratio, with a control signal flat (not every such curve was filed as active); inconclusive = small, poorly fitted or top-dose-only effect, or effect the other way, or a change in a side signal; inactive = flat fitted curve, though single readings scatter; the % refers to the signal ratio. Where the call is inconclusive, the potency comes from a doubtful curve fit.

Assay: qHTS Assay for Lipid Storage Modulators in Drosophila S3 Cells
Settings: BODIPY lipid droplet fluorescence, 18-24 h, cells fed with added oleic acid; lipid storage change, negative = inhibition: at 46.1 µM (top of the series) unless noted
Summary of the method: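 Drosophila S3 cells got compounds at several concentrations plus oleic acid (400 uM solution). Laser-scanning cytometry with 488 nm excitation read lipid droplets at 500-530 nm and cells at 575-640 nm. Percent activity was relative to 20 uM Triacsin C.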
% is scaled to controls: 0 for no effect and ±100 for the full control effect; potency is read from the fitted curve at half-maximal effect.

| Structure (SMILES) | lipid storage change, negative = inhibition | Potency |
| --- | --- | --- |
| Cc1ccc(C2=NN(CC(=O)NCCC(C)C)C(=O)CC2)cc1 | inconclusive: 25.9% |  |
| COC(=O)/C(C#N)=C/c1c(Oc2cccc(C)c2C)nc2ccccn2c1=O | inconclusive: -3.3% |  |
| COc1ccc(N(C(=O)c2csnn2)C(C(=O)NC2CCCC2)c2ccccc2)cc1 (stereo not drawn) | inconclusive: 74.1% |  |
| COc1cccc(CN2CCC(C(=O)Nc3ccc(-c4cccc(C)c4)cc3)CC2)c1O |  | inconclusive: 16.4 µM [falling, single point] |
| Cc1nc2ccc([N+](=O)[O-])cc2c(=O)n1Cc1ccc(Br)cc1 | inconclusive: -182% |  |
| COc1ccc(NC(=O)c2ccco2)cc1NC(=O)COc1ccccc1 | inconclusive: -9.45% |  |
| CCn1cc(CCCC(=O)NCc2ccccc2OC)c2ccccc21 | inconclusive: -23% |  |
| Cc1ccccc1NC(c1cccc(Cl)c1)c1nnnn1C1CCCCC1 (stereo not drawn) | inconclusive: -17.2% |  |
| CC(NC(=O)c1ccc(CS(=O)(=O)c2ccc(Cl)cc2)o1)c1ccc2c(c1)OCCO2 (stereo not drawn) |  | inconclusive: 4.11 µM [activator, full curve, poor fit] |
| COc1cc(OC)c(OC)cc1/C=C/c1cc(C(=O)O)c2ccccc2n1 | inconclusive: -20.3% |  |
| COc1cc(-c2n[nH]c(=S)n2-c2ccc(C)cc2)cc(OC)c1OC | inconclusive: -50.9% |  |
| COc1ccc(CCN(C)C(=O)c2cc(S(=O)(=O)NCc3ccccc3)ccc2C)cc1OC | inconclusive: -5.94% |  |
| Cc1cc(C(F)(F)F)c2c(n1)sc1c(O)cc(=O)[nH]c12 | inconclusive: -0.655% |  |
| CCCCNC(=O)c1onc(CSc2cccc(C)c2)c1C(=O)O | inconclusive: 9.42% |  |
| CC(C)C(C)(C#N)NC(=O)CSc1nc2scc(-c3ccco3)c2c(=O)n1-c1ccccc1 (stereo not drawn) |  | inconclusive: 0.0082 µM [activator, full curve, poor fit] |
| COc1ccc(C(=O)Cn2c3ccccc3n3nc(CCC(=O)O)c(=O)nc23)cc1OC | inconclusive: -38.8% |  |
| COc1ccc(C2CC(c3ccccc3)=NN2C(=O)CN2CCN(Cc3ccccc3)CC2)cc1 (stereo not drawn) | inconclusive: 12.2% |  |
| Cc1occc1C(=O)NNC(=O)c1cccc(F)c1 | inconclusive: -2.2% |  |
| CC(C)c1ccccc1NC(=O)Cn1c(/C=C/c2ccccc2)nc2ccccc21 |  | inconclusive: 13 µM [falling, single point] |
| COC(=O)C1=C(C)NC(C)=C(C(=O)OC)C1c1ccccc1[N+](=O)[O-] | inconclusive: -76% |  |
| O=C(OCCC1Oc2cccnc2NC1=O)c1ccc([N+](=O)[O-])cc1 (stereo not drawn) | inconclusive: 35.7% |  |
| Cc1ccccc1C(=O)NC1CCCCCCC1 |  | inconclusive: 3.66 µM [activator, full curve] |
| Cc1ccc(C)c(NC(=S)NNC(=O)c2ccco2)c1 |  | inconclusive: 29.1 µM [activator, single point] |
| CN(CCCC(=O)Nc1ccccc1F)S(=O)(=O)c1ccc(F)cc1 | inconclusive: 73% |  |
| Cc1cc(C)nc(SCC(=O)OCN2C(=O)c3ccccc3C2=O)n1 | inconclusive: 2.74% |  |

Fetched by structure from above:

| Structure (SMILES) | lipid storage change, negative = inhibition | Potency |
| --- | --- | --- |
| COc1ccc(CCN(C)C(=O)c2cc(S(=O)(=O)NCc3ccccc3)ccc2C)cc1OC | inconclusive: -5.94% |  |
| COc1cccc(CN2CCC(C(=O)Nc3ccc(-c4cccc(C)c4)cc3)CC2)c1O |  | inconclusive: 16.4 µM [falling, single point] |
| CCCCNC(=O)c1onc(CSc2cccc(C)c2)c1C(=O)O | inconclusive: 9.42% |  |

(list continues)

| Structure (SMILES) | lipid storage change, negative = inhibition | Potency |
| --- | --- | --- |
| COc1ccc(C(C(=O)NC(C)(C)C)N(C(=O)CNC(=O)c2cccs2)c2cccnc2)cc1OC (stereo not drawn) | inconclusive: 176% |  |
| CN(/N=C/c1cc(Cl)cc(Cl)c1O)C(=S)NC(C)(C)C | inconclusive: 0.759% |  |
| O=C(O)c1cc(NC(=S)NC(=O)C(c2ccccc2)c2ccccc2)ccc1Cl | inconclusive: 13.9% |  |
| COc1cccc(NC(=O)c2cccs2)c1 | inconclusive: 3.26% |  |
| O=C(OCCOc1ccccc1)c1cc(S(=O)(=O)N2CCOCC2)ccc1Cl | inconclusive: 7.85% |  |
| Oc1ccc2ccccc2c1CN1CCCC1 |  | inconclusive: 9.2 µM [activator, single point] |
| O=C(CC(c1ccccc1)c1ccccc1)NCC(O)c1ccc([N+](=O)[O-])cc1 (stereo not drawn) | inconclusive: -61.6% |  |
| CC(=O)Nc1ccc(NC(=O)C/C(C)=N/NC(=O)COc2cc(C)c(Br)cc2Br)cc1 |  | inconclusive: 29.1 µM [rising, single point] |
| NC(=O)NC(=O)COC(=O)c1ccc2c(c1)C(=O)N(Cc1ccccc1)C2=O |  | inconclusive: 6.51 µM [cytotoxic, single point] |
| COc1ccc(C(=O)N/N=C/c2ccccc2OC(=O)c2ccccc2)cc1 |  | inconclusive: 20.6 µM [falling, single point] |
| O=C(Nc1cc(C(F)(F)F)ccc1N1CCOCC1)C1=NN(c2ccccc2)C(=O)CC1 |  | inconclusive: 23.1 µM [falling, single point] |
| Cc1ccc(NC(=O)CCc2nc(-c3cccs3)no2)c(Br)c1 |  | inconclusive: 3.66 µM [activator, partial curve] |
| CCOc1cc(N2CCOCC2)c(OCC)cc1NC(=O)Cc1cccc(OC)c1 | inconclusive: 9.32% |  |
| COC(=O)c1ccc(/C=C2/SC(=S)N(CCCC(=O)Nc3ccccn3)C2=O)cc1 |  | inconclusive: 0.291 µM [activator, full curve, poor fit] |
| Cc1ccc(-c2noc(Cn3nc(C(=O)O)c4ccccc4c3=O)n2)cc1 | inconclusive: 3.69% |  |
| FC(F)(F)c1cc(Cl)c2nnc(C(F)(F)Cl)n2c1 |  | inconclusive: 0.184 µM [cytotoxic, full curve] |
| CCC(=O)N(CC)c1nc(-c2ccc(OC)cc2)cs1 |  | inconclusive: 29.1 µM [falling, partial curve, poor fit] |
| COc1ccc(CCNC(=O)COc2cc(O)c3c(c2)OC(C)(C)CC3=O)cc1 |  | inconclusive: 25.9 µM [falling, single point] |
| Cc1cc(C)c(NC(=O)CN(C)C(=O)CNC(=O)c2cccs2)c(C)c1 | inconclusive: 6.23% |  |
| C=CCNS(=O)(=O)c1cc(S(=O)(=O)NCC=C)c(OC)cc1OC |  | inconclusive: 0.164 µM [cytotoxic, full curve] |
| O=Cc1ccc(Sc2nnc(-c3ccccc3)o2)c([N+](=O)[O-])c1 | inconclusive: 46.5% |  |
| COC(=O)C1=C(CS(=O)(=O)c2cc(OC)ccc2OC)NC(=O)NC1c1ccc(O)c(OC)c1 (stereo not drawn) | inconclusive: -9.71% |  |
| CC1CCN(C(=O)CSc2nnc(-c3ccccc3F)o2)CC1 | inconclusive: -76.7% |  |
| CC(=O)c1ccc(S(=O)(=O)N2CCN(C(=O)c3ccccc3Cc3ccccc3)CC2)cc1 | inactive: 18% |  |
| O=C(CNC1CCCCCC1)Nc1ccccc1N1CCCCC1 | inconclusive: -25% |  |

| Structure (SMILES) | lipid storage change, negative = inhibition | Potency |
| --- | --- | --- |
| Cc1cccc(OCCn2cc(/C=N/NC(=O)c3ccncc3)c3ccccc32)c1 | inconclusive: 32.6% |  |
| Cc1c(NC(=O)c2noc(C(C)C)c2[N+](=O)[O-])c(=O)n(-c2ccccc2)n1C | inconclusive: 0.567% |  |
| CCCCn1nc(C(=O)N(C)CC(=O)Nc2cccc(F)c2)c2ccccc2c1=O | inconclusive: -12.5% |  |
| CC1(NC(=O)Cc2ccc(Cl)c(Cl)c2)CCS(=O)(=O)C1 (stereo not drawn) |  | inconclusive: 0.0065 µM [falling, full curve, poor fit] |
| CSc1sc(C(=O)Nc2ccc(F)cc2F)c2c1C=CCC2 |  | inconclusive: 16.4 µM [activator, single point] |
| CCOC(=O)c1cnc(SCC(=O)Nc2ccc3c(c2)OCCO3)nc1N |  | inconclusive: 20.6 µM [activator, single point] |
| COc1ccc(CCNC(=O)CSc2nnnn2-c2ccccc2)cc1 | inconclusive: -10.7% |  |
| COc1ccc(-c2cc(C(=O)NCCc3ccc(S(N)(=O)=O)cc3)c3ccccc3n2)cc1 | inconclusive: -95.3% |  |
| O=C(c1cccc(COCC(F)(F)C(F)F)c1)N1CCN(c2ccccc2)CC1 | inconclusive: 10.2% |  |
| CCNC(=O)COC(=O)C1CCN(S(=O)(=O)c2ccc3c(c2)OCCO3)CC1 | inconclusive: 31.4% [at 0.0737 µM] |  |
| Cc1oc(-c2cccc(Cl)c2)nc1CSc1nc2c(c(=O)[nH]1)CCC2 | inconclusive: 8.41% |  |
| CCOc1cccc(C(=O)NC(c2ccccc2)C(C)C)c1 (stereo not drawn) | inconclusive: 20.4% |  |
| Cc1ccccc1NC(=O)/C=C/c1ccc([N+](=O)[O-])s1 |  | active: 9.2 µM |
| CC1CCC2(CC1)NC(=O)N(CC(=O)N1CCN(C(=O)c3cccs3)CC1)C2=O (stereo not drawn) |  | inconclusive: 29.1 µM [activator, partial curve, poor fit] |
| CCc1ccc(-c2nn(-c3ccccc3C)cc2C(=O)N2CCN(C3CCS(=O)(=O)C3)CC2)cc1 (stereo not drawn) |  | inconclusive: 29.1 µM [activator, single point] |
| COc1ccc(N2CCN(C(=O)C3CC(=O)N(c4ccc(C)cc4)C3)CC2)cc1 (stereo not drawn) | inconclusive: 42.4% |  |
| CCOC(=O)C1CCCN(C(=O)/C=C/c2cc(OC)c(OC)c(OC)c2)C1 (stereo not drawn) | inconclusive: 51.4% |  |
| CCCCOc1ccc(C(=O)NCC(=O)NCC(c2ccc(OC)cc2)N2CCOCC2)cc1 (stereo not drawn) | inconclusive: 10.9% |  |
| CC(=O)N1c2ccc(S(=O)(=O)NCCC(=O)Nc3ccc(OC(F)(F)F)cc3)cc2CC1C (stereo not drawn) |  | inconclusive: 29.1 µM [falling, single point] |
| Cn1c(-c2cccc(Br)c2)cnc1NCc1ccccc1O | inconclusive: -4.68% |  |
| Cc1c(N2C(=O)/C(=C3/C(=O)N(C)c4ccccc43)SC2=S)c(=O)n(-c2ccccc2)n1C | inconclusive: -13.2% |  |
| Cc1cc(C)c(NC2=NS(=O)(=O)c3ccccc32)c(C)c1 |  | active: 16.4 µM |
| COc1cccc(/C=C(/C(=O)OCC(=O)NC2CCCCCCC2)c2ccccc2)c1 |  | inconclusive: 6.51 µM [activator, partial curve] |
